Results published in patent publication US20150065416A1, “NOVEL DRUG COMBINATION” (FAB PHARMA SAS, priority 2013, published 2015).
Some results were stated once for a whole list of compounds, not compound by compound.

Test system: A. baumannii RCH-69
Test: Mouse model of A. baumannii pneumonia, Study 3: survival
Format: in vivo, Acinetobacter baumannii
Details: Study 3, RCH-69; compound (I) 200 mg/kg, meropenem 50 mg/kg Q8 h for 3 days
Description: The bacterial inoculum was prepared in order to obtain a suspension containing 10^8 CFU/mL of Acinetobacter baumannii in saline.
Experimentations were performed with six-week old female C3H/HeN mice (18-20 g, Breeding Centre JANVIER (Ile saint Genest Mayenne 53)) because of their particular susceptibility to Acinetobacter baumannii and the reproducibility of the results (inbreeding in the breed). Each mouse was individually marked and housed in cages containing five animals/cage under ventilated and controlled (temperature and humidity) atmosphere.
The mice were rendered transiently neutropenic by 2 intra-peritoneal (IP) injections of 150 μL of cyclophosphamide (Endoxan® 150 mg/kg) 4 (D-4) and 3 (D-3) days before the Acinetobacter baumannii inoculation (Day 0). This transient immunosuppression was sufficient to facilitate the development of the A. baumannii pneumonia while allowing the recovery of the neutrophil influx 2 (Day 2) days after inoculation in order to avoid or limit a systemic bacterial dissemination.
Mice were anesthetized by a mixture of oxygen and isoflurane. The bacterial inoculation was performed on Day 0 by intra-tracheal installation using an endotracheal catheter (50 μl of the suspension, thus 5.106 CFU). […]
Survival observations were assessed twice daily, up to 4 days post infection. […]

Structure (SMILES)	time post-infection within which the mice died [h]
CCc1cc(O)c(Oc2ccc(C(N)=O)cc2F)cc1F [compound (I), 4-(4-ethyl-5-fluoro-2-hydroxyphenoxy)-3-fluorobenzamide]	≤ 48
C[C@@H](O)[C@H]1C(=O)N2C(C(=O)O)=C(S[C@@H]3CN[C@H](C(=O)N(C)C)C3)[C@H](C)[C@H]12 [meropenem]	≤ 48
